Results deposited as PubChem BioAssay AID493246 (Drosophila RNAi Screening Center, 2011)
The screen tested about 21,000 reagents; below is an unselected part of those that have a named target and a result. Of all reagents, 429 (2%) were called active. 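Values are raw and not normalised between plates; calls rest on per-plate z-scores that were not deposited.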 Reagents against one gene are numbered here. A plus sign joins genes that one reagent is predicted to hit. Reagent sequences are not shown. The record does not give: the amount of reagent, the time to read-out.

Aim: 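Identify essential fly genes by loss of cell viability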 (primary screen)
Cell system: Drosophila Kc and S2R+ cells
Reagents: long dsRNA against Drosophila genes
Read-out: 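Cell number per well after knock-down, printed as raw plate values; calls were based on per-plate z-scores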
Scale: Kc cell number and S2R+ cell number: higher = more cells remaining
Rule for the call: 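Active when the per-plate z-score of cell number is 3 or more in the direction of fewer cells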

gene	reagent	Kc cell number, rep 1	Kc cell number, rep 2	S2R+ cell number, rep 1	S2R+ cell number, rep 2	Outcome
CG33306	1	1.33e6	1.38e6	1.29e6	1.28e6	inactive
Lrpprc2	1	5.04e5		8.86e5		inactive
eEF1beta	1	1.39e6	1.44e6	1.18e6	1.27e6	inactive
CG5139	1	1.42e6	1.57e6	1.04e6	1.16e6	inactive
Oseg5	1	1.82e6	1.89e6	1.23e6	2.65e5	inactive
CG34133	1	4.56e5		8.17e5		inactive
RhoGEF3	1	1.46e6	1.30e6	1.04e6	1.24e6	inactive
RhoGEF3	2	1.31e6	1.29e6	1.07e6	1.25e6	inactive
CG18536	1	1.69e6	1.81e6	1.18e6	1.30e6	inactive
tth	1	4.21e5		7.20e5		inactive
CG42808 + CG42807	1	1.37e6	1.43e6	1.15e6	1.13e6	inactive
CG42808 + CG42807	2	1.51e6	1.58e6	1.25e6	1.35e6	inactive
CG6418	1	1.18e6	1.36e6	1.39e6	1.14e6	inactive
S-Lap1	1	1.45e6	1.47e6	1.23e6	1.17e6	inactive
CG9689	1	4.80e5		9.35e5		inactive
CG34242	1	1.65e6	1.65e6	1.18e6	1.36e6	inactive
Osi24	1	1.59e6	1.77e6	1.32e6	1.45e6	inactive
CG2444	1	1.52e6	1.47e6	1.06e6	1.10e6	inactive
Past1	1	1.79e6	1.85e6	1.39e6	1.55e6	inactive

8 of these entries, reformatted.
| gene | reagent | Kc cell number, rep 1 | Kc cell number, rep 2 | S2R+ cell number, rep 1 | S2R+ cell number, rep 2 | Outcome |
| --- | --- | --- | --- | --- | --- | --- |
| eEF1beta | 1 | 1.39e6 | 1.44e6 | 1.18e6 | 1.27e6 | inactive |
| CG5139 | 1 | 1.42e6 | 1.57e6 | 1.04e6 | 1.16e6 | inactive |
| Oseg5 | 1 | 1.82e6 | 1.89e6 | 1.23e6 | 2.65e5 | inactive |
| CG34133 | 1 | 4.56e5 | – | 8.17e5 | – | inactive |
| RhoGEF3 | 1 | 1.46e6 | 1.30e6 | 1.04e6 | 1.24e6 | inactive |
| RhoGEF3 | 2 | 1.31e6 | 1.29e6 | 1.07e6 | 1.25e6 | inactive |
| CG18536 | 1 | 1.69e6 | 1.81e6 | 1.18e6 | 1.30e6 | inactive |
| tth | 1 | 4.21e5 | – | 7.20e5 | – | inactive |

Next results follow:
gene	reagent	Kc cell number, rep 1	Kc cell number, rep 2	S2R+ cell number, rep 1	S2R+ cell number, rep 2	Outcome
CG32302	1	1.46e6	1.31e6	1.02e6	1.29e6	inactive
jagn	1	1.51e6	1.52e6	1.19e6	1.31e6	inactive
Rim2	1	1.58e6	1.57e6	1.10e6	1.23e6	inactive
Rim2	2	1.37e6	1.54e6	1.40e6	1.28e6	inactive
Plod	1	1.29e6	1.55e6	1.17e6	1.12e6	inactive
Plod	2	1.29e6	1.35e6	1.24e6	1.29e6	inactive
CG31251	1	1.11e6	1.35e6	1.01e6	1.09e6	inactive
Ifrd1	1	1.56e6	1.54e6	1.13e6	1.28e6	inactive
Ifrd1	2	1.54e6	1.53e6	1.12e6	1.32e6	inactive
CG2972	1	6.18e5		9.28e5		inactive
Ibf1	1	1.65e6	1.75e6	1.36e6	1.56e6	inactive
CG11000	1	1.44e6	1.54e6	1.32e6	1.45e6	inactive
CG13038	1	1.79e6	1.87e6	1.21e6	1.39e6	inactive
E(Pc)	1	1.33e6	1.28e6	8.62e5	1.06e6	inactive
E(Pc)	2	1.35e6	1.41e6	1.08e6	1.25e6	inactive
CG13614	1	1.41e6	1.47e6	1.06e6	1.13e6	inactive
Jig	1	1.40e6	1.49e6	1.22e6	1.32e6	inactive
CG5043	1	1.50e6	1.56e6	1.20e6	1.29e6	inactive
mip40	1	1.45e6	1.50e6	1.12e6	1.13e6	inactive
CG17270	1	1.53e6	1.57e6	1.21e6	1.29e6	inactive
CG14877	1	1.36e6	1.37e6	1.06e6	1.21e6	inactive
Cys	1	1.31e6	1.41e6	1.06e6	1.18e6	inactive
ebi	1	1.42e6	1.44e6	8.42e5	9.52e5	inactive
Ubc4	1	1.48e6	1.46e6	1.44e6	1.35e6	inactive
5-HT1A	1	1.47e6	1.49e6	1.15e6	1.27e6	inactive
CG15208	1	5.84e5		8.41e5		inactive
CG12391	1	1.32e6	1.44e6	1.04e6	1.03e6	inactive
CG3548	1	1.40e6	1.49e6	1.14e6	1.20e6	inactive
Gasp	1	1.60e6	1.59e6	1.30e6	1.38e6	inactive
CG15333	1	1.47e6	1.51e6	1.04e6	1.09e6	inactive
CG15333	2	1.46e6	1.43e6	1.04e6	1.09e6	inactive
CCAP	1	1.59e6	1.61e6	1.02e6	1.11e6	inactive
mbo	1	1.47e6	1.54e6	1.26e6	1.36e6	inactive
CG15641	1	1.49e6	1.49e6	1.05e6	1.16e6	inactive
CG13609	1	1.49e6	1.78e6	1.09e6	1.19e6	inactive
Rdh1	1	1.04e6	1.29e6	1.04e6	9.86e5	inactive
CG15605	1	1.48e6	1.59e6	1.18e6	1.23e6	inactive
TrpRS-m	1	1.38e6	1.42e6	1.21e6	1.23e6	inactive
CG31278	1	1.32e6	1.33e6	1.27e6	1.32e6	inactive
GatA	1	1.52e6	1.61e6	1.15e6	1.23e6	inactive
